Results taken from patent US9145346B1, “Process for 2,2,4,4-tetramethylcyclobutane-1,3-diol crystallization” (Eastman Chemical Company, priority 2014, dated 2015).
The source gives many values for each of these; only a part stands here. One block for each compound: values may come before it.

Assay: Solubility (saturated concentration) of cis-TMCD and trans-TMCD in various solvents, by gas chromatography
Assay type: physicochemical
Protocol: All concentrations were measured by gas chromatography. Water concentration was measured by Karl Fischer titrations.
The solubility of cis-TMCD and trans-TMCD in various solvents was determined by charging cis-TMCD, trans-TMCD, and the solvent or solvents of interest into a 120 ml jacketed glass vessel. The vessel was equipped with a stir bar in order to provide mixing and the jacket was used to control the temperature of the vessel contents. The vessel was equipped with charging and sampling ports on top of the vessel.
The slurry was allowed to stand for a time sufficient for the solids to saturate the solvent at the desired temperature. At that time, a sample of the solution was withdrawn from the cell using a fritted pipette so as to remove only the liquid phase. The sample was analyzed for cis-TMCD and trans-TMCD isomer content. These values represent the saturated concentration of each isomer at the sampling temperature.
After this, the cell contents were heated to the next desired temperature and the contents were held for another time interval sufficient to allow the slurry to equilibrate. A sample was then taken of the solution and analyzed. Following this procedure, solubility data was collected up to the final desired temperature.
The reported solubility of each isomer at a given temperature for a given solvent is expressed as a weight % relative to the saturated concentration of the isomer at the highest temperature reported for a given solvent.

[1] = Acetone, 6.2° C., relative to 54.7° C.
[2] = Acetone, 16.3° C., relative to 54.7° C.
[3] = Acetone, 25.7° C., relative to 54.7° C.
[4] = Acetone, 40.5° C., relative to 54.7° C.
[5] = Acetone, 54.7° C., relative to 54.7° C.
[6] = Benzene, 5.6° C., relative to 70.1° C.
[7] = Benzene, 12.7° C., relative to 70.1° C.
[8] = Benzene, 21.2° C., relative to 70.1° C.
[9] = Benzene, 30.9° C., relative to 70.1° C.
[10] = Benzene, 40.5° C., relative to 70.1° C.
[11] = Benzene, 50.3° C., relative to 70.1° C.
[12] = Benzene, 61.4° C., relative to 70.1° C.
[13] = Benzene, 70.1° C., relative to 70.1° C.
[14] = CHDM, 59.5° C., relative to 106.9° C.
[15] = DIBK, 6.2° C., relative to 94.4° C.
[16] = DIBK, 13.3° C., relative to 94.4° C.
[17] = DIBK, 25.2° C., relative to 94.4° C.
[18] = DIBK, 35.1° C., relative to 94.4° C.
[19] = DIBK, 44.1° C., relative to 94.4° C.
[20] = DIBK, 61.7° C., relative to 94.4° C.
[21] = DIBK, 71.0° C., relative to 94.4° C.
[22] = DIBK, 93.9° C., relative to 94.4° C.
[23] = DIBK, 94.4° C., relative to 94.4° C.
[24] = Ethylene Glycol, 16.5° C., relative to 91.4° C.
[25] = Ethylene Glycol, 91.4° C., relative to 91.4° C.
[26] = MIBK, 15.8° C., relative to 80.5° C.
[27] = MIBK, 26.0° C., relative to 80.5° C.
[28] = MIBK, 35.5° C., relative to 80.5° C.
[29] = MIBK, 50.5° C., relative to 80.5° C.
[30] = MIBK, 61.3° C., relative to 80.5° C.
[31] = MIBK, 70.8° C., relative to 80.5° C.
[32] = MIBK, 80.5° C., relative to 80.5° C.
[33] = Toluene, 15.0° C., relative to 99.7° C.
[34] = Toluene, 26.2° C., relative to 99.7° C.
[35] = Toluene, 40.5° C., relative to 99.7° C.
[36] = Toluene, 54.9° C., relative to 99.7° C.
[37] = Toluene, 69.8° C., relative to 99.7° C.
[38] = Toluene, 80.2° C., relative to 99.7° C.
[39] = Toluene, 89.8° C., relative to 99.7° C.
[40] = Toluene, 99.7° C., relative to 99.7° C.
[41] = Water, 6.2° C., relative to 79.3° C.
[42] = Water, 16.3° C., relative to 79.3° C.
[43] = Water, 25.7° C., relative to 79.3° C.
[44] = Water, 40.5° C., relative to 79.3° C.
[45] = Water, 54.7° C., relative to 79.3° C.
[46] = Water, 70.1° C., relative to 79.3° C.
[47] = Water, 79.3° C., relative to 79.3° C.
[48] = Xylenes, 4.2° C., relative to 99.7° C.
[49] = Xylenes, 15.0° C., relative to 99.7° C.
[50] = Xylenes, 26.2° C., relative to 99.7° C.
[51] = Xylenes, 40.5° C., relative to 99.7° C.
[52] = Xylenes, 54.9° C., relative to 99.7° C.
[53] = Xylenes, 69.8° C., relative to 99.7° C.
[54] = Xylenes, 80.2° C., relative to 99.7° C.
[55] = Xylenes, 99.7° C., relative to 99.7° C.
[56] = Xylenes, −5.1° C., relative to 99.7° C.
[57] = n-Decane, 37.8° C., relative to 89.6° C.
[58] = n-Decane, 52.9° C., relative to 89.6° C.
[59] = n-Decane, 69.5° C., relative to 89.6° C.
[60] = n-Decane, 79.3° C., relative to 89.6° C.
[61] = n-Decane, 89.6° C., relative to 89.6° C.
[62] = n-Heptane, 23.0° C., relative to 69.9° C.
[63] = n-Heptane, 30.5° C., relative to 69.9° C.
[64] = n-Heptane, 40.4° C., relative to 69.9° C.
[65] = n-Heptane, 49.9° C., relative to 69.9° C.
[66] = n-Heptane, 60.6° C., relative to 69.9° C.
[67] = n-Heptane, 69.9° C., relative to 69.9° C.

Relative solubility [1]: 28% relative wt %
Relative solubility [2]: 37% relative wt %
Relative solubility [3]: 51% relative wt %
Relative solubility [4]: 73% relative wt %
Relative solubility [5]: 100% relative wt %
Relative solubility [6]: 3% relative wt %
Relative solubility [7]: 3% relative wt %
Relative solubility [8]: 6% relative wt %
Relative solubility [9]: 10% relative wt %
Relative solubility [10]: 18% relative wt %
Relative solubility [11]: 32% relative wt %
Relative solubility [12]: 60% relative wt %
Relative solubility [13]: 100% relative wt %
Relative solubility [14]: 12% relative wt %
Relative solubility [15]: 5% relative wt %
Relative solubility [16]: 6% relative wt %
Relative solubility [17]: 9% relative wt %
Relative solubility [18]: 12% relative wt %
Relative solubility [19]: 16% relative wt %
Relative solubility [20]: 30% relative wt %
Relative solubility [21]: 43% relative wt %
Relative solubility [22]: 97% relative wt %
Relative solubility [23]: 100% relative wt %
Relative solubility [24]: 15% relative wt %
Relative solubility [25]: 100% relative wt %
Relative solubility [26]: 17% relative wt %
Relative solubility [27]: 23% relative wt %
Relative solubility [28]: 30% relative wt %
Relative solubility [29]: 46% relative wt %
Relative solubility [30]: 59% relative wt %
Relative solubility [31]: 77% relative wt %
Relative solubility [32]: 100% relative wt %
Relative solubility [33]: 1% relative wt %
Relative solubility [34]: 2% relative wt %
Relative solubility [35]: 4% relative wt %
Relative solubility [36]: 8% relative wt %
Relative solubility [37]: 15% relative wt %
Relative solubility [38]: 26% relative wt %
Relative solubility [39]: 42% relative wt %
Relative solubility [40]: 100% relative wt %
Relative solubility [41]: 52% relative wt %
Relative solubility [42]: 55% relative wt %
Relative solubility [43]: 51% relative wt %
Relative solubility [44]: 50% relative wt %
Relative solubility [45]: 56% relative wt %
Relative solubility [46]: 79% relative wt %
Relative solubility [47]: 100% relative wt %
Relative solubility [48]: 0% relative wt %
Relative solubility [49]: 1% relative wt %
Relative solubility [50]: 1% relative wt %
Relative solubility [51]: 3% relative wt %
Relative solubility [52]: 7% relative wt %
Relative solubility [53]: 16% relative wt %
Relative solubility [54]: 26% relative wt %
Relative solubility [55]: 100% relative wt %
Relative solubility [56]: 1% relative wt %
Relative solubility [57]: 3% relative wt %
Relative solubility [58]: 10% relative wt %
Relative solubility [59]: 27% relative wt %
Relative solubility [60]: 53% relative wt %
Relative solubility [61]: 100% relative wt %
Relative solubility [62]: 3% relative wt %
Relative solubility [63]: 4% relative wt %
Relative solubility [64]: 13% relative wt %
Relative solubility [65]: 27% relative wt %
Relative solubility [66]: 54% relative wt %
Relative solubility [67]: 100% relative wt %
SMILES: CC1(C)[C@H](O)C(C)(C)[C@@H]1O [cis-TMCD, cis-2,2,4,4-tetramethylcyclobutane-1,3-diol]

Relative solubility [1]: 27% relative wt %
Relative solubility [2]: 36% relative wt %
Relative solubility [3]: 50% relative wt %
Relative solubility [4]: 72% relative wt %
Relative solubility [5]: 100% relative wt %
Relative solubility [6]: 3% relative wt %
Relative solubility [7]: 3% relative wt %
Relative solubility [8]: 6% relative wt %
Relative solubility [9]: 10% relative wt %
Relative solubility [10]: 17% relative wt %
Relative solubility [11]: 31% relative wt %
Relative solubility [12]: 60% relative wt %
Relative solubility [13]: 100% relative wt %
Relative solubility [14]: 45% relative wt %
Relative solubility [15]: 5% relative wt %
Relative solubility [16]: 7% relative wt %
Relative solubility [17]: 10% relative wt %
Relative solubility [18]: 13% relative wt %
Relative solubility [19]: 18% relative wt %
Relative solubility [20]: 29% relative wt %
Relative solubility [21]: 47% relative wt %
Relative solubility [22]: 95% relative wt %
Relative solubility [23]: 100% relative wt %
Relative solubility [24]: 14% relative wt %
Relative solubility [25]: 100% relative wt %
Relative solubility [26]: 21% relative wt %
Relative solubility [27]: 29% relative wt %
Relative solubility [28]: 38% relative wt %
Relative solubility [29]: 57% relative wt %
Relative solubility [30]: 69% relative wt %
Relative solubility [31]: 83% relative wt %
Relative solubility [32]: 100% relative wt %
Relative solubility [33]: 1% relative wt %
Relative solubility [34]: 2% relative wt %
Relative solubility [35]: 4% relative wt %
Relative solubility [36]: 8% relative wt %
Relative solubility [37]: 16% relative wt %
Relative solubility [38]: 26% relative wt %
Relative solubility [39]: 42% relative wt %
Relative solubility [40]: 100% relative wt %
Relative solubility [41]: 38% relative wt %
Relative solubility [42]: 38% relative wt %
Relative solubility [43]: 35% relative wt %
Relative solubility [44]: 39% relative wt %
Relative solubility [45]: 50% relative wt %
Relative solubility [46]: 73% relative wt %
Relative solubility [47]: 100% relative wt %
Relative solubility [48]: 0% relative wt %
Relative solubility [49]: 1% relative wt %
Relative solubility [50]: 2% relative wt %
Relative solubility [51]: 4% relative wt %
Relative solubility [52]: 8% relative wt %
Relative solubility [53]: 16% relative wt %
Relative solubility [54]: 27% relative wt %
Relative solubility [55]: 100% relative wt %
Relative solubility [56]: 0% relative wt %
Relative solubility [57]: 3% relative wt %
Relative solubility [58]: 9% relative wt %
Relative solubility [59]: 27% relative wt %
Relative solubility [60]: 52% relative wt %
Relative solubility [61]: 100% relative wt %
Relative solubility [62]: 3% relative wt %
Relative solubility [63]: 4% relative wt %
Relative solubility [64]: 14% relative wt %
Relative solubility [65]: 28% relative wt %
Relative solubility [66]: 53% relative wt %
Relative solubility [67]: 100% relative wt %
SMILES: CC1(C)[C@H](O)C(C)(C)[C@H]1O [trans-TMCD, trans-2,2,4,4-tetramethylcyclobutane-1,3-diol]
